Experimental data: PubChem BioAssay AID1224828 (NIAID, 2016)
Purpose: 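Knock-downs that increase or decrease LPS-induced p65 nuclear translocation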 (primary screen). Cell system: mouse RAW264.7 G9 macrophage reporter cells (GFP-p65, Tnf promoter-mCherry). Reagents: siRNA pool against mouse genes, 100 nM. Duration: 2 days siRNA transfection, then 40 min LPS before fixation. Treatment: LPS (Salmonella minnesota R595) at 10 ng/ml. Read-out: 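Imaged p65 nuclear translocation ratio, normalised to the plate median, converted to robust z-scores and averaged across two replicates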. Scale: p65 translocation robust z-score: higher = more nuclear NF-kappaB p65 after LPS than the plate median; nuclear/cytoplasmic p65 ratio: higher = more nuclear NF-kappaB p65. Active means: 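Active if robust z is above 3.3 (negative regulators) or below -1.56, the Tlr4 control median (positive regulators); activity score 50 or more; control wells not called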. Calls: active = hit (p65 shift raised or lowered); inactive = no clear change.
This is a random part of about 17,000 reagents. 762 of all reagents (4.5%) were called active. 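Active calls include both raised and lowered p65 entry, mostly lowered; wells with fewer than 50 cells lack a z-score.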 The raw values are shown without normalisation. Entries without a mark were called inactive.

Target gene | p65 translocation robust z-score | nuclear/cytoplasmic p65 ratio, rep 1 | nuclear/cytoplasmic p65 ratio, rep 2 | low cell count flag
Slc49a3 | – | 1.23 | 1.25 | fewer than 50 cells per well; well left out of scoring
Rrm2 (ribonucleotide reductase M2) | – | 1.11 | 1.45 | fewer than 50 cells per well; well left out of scoring
Ecm1 (extracellular matrix protein 1) | 1.45 | 1.85 | 1.38 | enough cells to score
Cnr2 (cannabinoid receptor 2) | -0.69 | 1.41 | 1.37 | enough cells to score
Dnaja3 (DnaJ heat shock protein family (Hsp40) member A3) | -1.77 (active) | 1.22 | 1.14 | enough cells to score
Pf4 (platelet factor 4) | -0.56 | 1.49 | 1.7 | enough cells to score
Plppr1 (phospholipid phosphatase related 1) | 0.87 | 1.58 | 1.47 | enough cells to score
Mknk2 (MAP kinase-interacting serine/threonine kinase 2) | -0.49 | 1.54 | 1.37 | enough cells to score

Just “nuclear/cytoplasmic p65 ratio, rep 2” (3 entries from above):
Ecm1 (extracellular matrix protein 1)	1.38
Cnr2 (cannabinoid receptor 2)	1.37
Dnaja3 (DnaJ heat shock protein family (Hsp40) member A3)	1.14 (active)

Additional entries follow:
Target gene | p65 translocation robust z-score | nuclear/cytoplasmic p65 ratio, rep 1 | nuclear/cytoplasmic p65 ratio, rep 2 | low cell count flag
Slc12a1 | -0.26 | 1.52 | 1.45 | enough cells to score
Fcrl2 (Fc receptor like 2) | -0.76 | 1.6 | 1.53 | enough cells to score
Or13a18 (olfactory receptor family 13 subfamily A member 18) | – | 1.25 | 1.37 | fewer than 50 cells per well; well left out of scoring
Trip13 (thyroid hormone receptor interactor 13) | 0.53 | 1.63 | 1.53 | enough cells to score
Hadh (hydroxyacyl-Coenzyme A dehydrogenase) | -0.39 | 1.55 | 1.34 | enough cells to score
Krt75 (keratin 75) | -0.82 | 1.35 | 1.28 | enough cells to score
Cd28 (CD28 antigen) | -0.07 | 1.37 | 1.45 | enough cells to score
Cobl (cordon-bleu WH2 repeat) | -0.99 | 1.35 | 1.73 | enough cells to score
Smim48 (small integral membrane protein 48) | -2.15 (active) | 1.06 | 1.21 | enough cells to score
Stra6 (stimulated by retinoic acid gene 6) | – | 1.14 | 1.07 | fewer than 50 cells per well; well left out of scoring
Chit1 (chitinase 1) | 0.36 | 1.64 | 1.42 | enough cells to score
Bcl9 (B cell CLL/lymphoma 9) | -0.64 | 1.45 | 1.58 | enough cells to score
Ghdc (GH3 domain containing) | -1.44 | 1.35 | 1.56 | enough cells to score
Cep55 (centrosomal protein 55) | -0.95 | 1.41 | 1.3 | enough cells to score
Tob2 (transducer of ERBB2, 2) | 0.02 | 1.51 | 1.53 | enough cells to score
Rps15 (ribosomal protein S15) | 0.09 | 1.32 | 1.23 | enough cells to score
